Measurements reported in PubChem BioAssay AID1671195 (Yale University, 2021)
Shown is one part, drawn at random, of about 22,000 reagents tested. About 1,510 of all reagents (6.9%) were called active. 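Active includes knockdowns raising or lowering LDL uptake; positive z-scores mean more uptake, negative mean less.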 A number with no mark means an inactive call.

Assay: 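Regulators of LDL receptor activity judged by labelled LDL uptake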 (primary screen)
System: human Huh7 hepatoma cells
Reagent: siRNA pool against human genes, 18 nM
Duration: about 2 to 2.5 days of knockdown, then 8 h LDL uptake
Challenge: DiI-labelled LDL at 30 µg/ml for 8 h, in lipoprotein-deficient serum medium
Measurement: 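Per-cell DiI-LDL intensity by automated imaging; well means scaled to the plate median and given as a robust z-score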
Scale: robust z-score: higher = more LDL uptake after knockdown
Active means: 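Active when two or more replicates show a robust z-score above 2 or below -2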

How did the screen score CELA1 (chymotrypsin like elastase 1)?
robust z-score, replicate 1: 1.06; robust z-score, replicate 2: 1.07; robust z-score, replicate 3: 0.496

What is on record for DDX39B (DExD-box helicase 39B)?
robust z-score, replicate 1: -0.00876; robust z-score, replicate 2: -0.0252; robust z-score, replicate 3: -0.0499

With PAK1IP1 (PAK1 interacting protein 1), how do the results read?
robust z-score, replicate 1: 4.4; robust z-score, replicate 2: 1.44; robust z-score, replicate 3: 0.83

What is on record for CBLN2 (cerebellin 2 precursor)?
robust z-score, replicate 1: -0.857; robust z-score, replicate 2: -1.06; robust z-score, replicate 3: -0.644

What is on record for LOC440478 (retired record)?
robust z-score, replicate 1: -0.335; robust z-score, replicate 2: -0.22; robust z-score, replicate 3: -0.499

For RAB42 (RAB42, member RAS oncogene family), what was measured?
robust z-score, replicate 1: -0.0408; robust z-score, replicate 2: 1.18; robust z-score, replicate 3: 0.662

What did the screen give for LRRC47 (leucine rich repeat containing 47)?
robust z-score, replicate 1: -1.81; robust z-score, replicate 2: -0.937; robust z-score, replicate 3: -1.09

For WDR97 (WD repeat domain 97), what was measured?
robust z-score, replicate 1: 0.0362; robust z-score, replicate 2: 0.0526; robust z-score, replicate 3: 0.633

Which result is listed for SPATA22 (spermatogenesis associated 22)?
robust z-score, replicate 1: -0.763; robust z-score, replicate 2: -0.529; robust z-score, replicate 3: -0.854

For LOC399924 (retired record), how do the results read?
robust z-score, replicate 1: -1.05; robust z-score, replicate 2: -1.37; robust z-score, replicate 3: -1.32

How did the screen score NAT9 (N-acetyltransferase 9)?
robust z-score, replicate 1: -0.732; robust z-score, replicate 2: -0.555; robust z-score, replicate 3: -0.591

What did the screen give for SETD1A (SET domain containing 1A, histone lysine methyltransferase)?
robust z-score, replicate 1: 0.566; robust z-score, replicate 2: 0.965; robust z-score, replicate 3: -1.36

With PAOX (polyamine oxidase), how do the results read?
robust z-score, replicate 1: -0.25; robust z-score, replicate 2: 0.336; robust z-score, replicate 3: -0.298

What is on record for FAM151A (family with sequence similarity 151 member A)?
robust z-score, replicate 1: 0.326; robust z-score, replicate 2: 0.0886; robust z-score, replicate 3: 0.477

For FGD5 (FYVE, RhoGEF and PH domain containing 5), what does the deposit list?
robust z-score, replicate 1: 0.169; robust z-score, replicate 2: 1.02; robust z-score, replicate 3: -0.169

What did the screen give for STAB1 (stabilin 1)?
robust z-score, replicate 1: 0.316; robust z-score, replicate 2: -0.321; robust z-score, replicate 3: -0.164

Part of the list above in another layout.
| Gene | robust z-score, replicate 1 | robust z-score, replicate 2 | robust z-score, replicate 3 |
| --- | --- | --- | --- |
| DDX39B (DExD-box helicase 39B) | -0.00876 | -0.0252 | -0.0499 |
| PAK1IP1 (PAK1 interacting protein 1) | 4.4 | 1.44 | 0.83 |
